# Laboratory results taken from PubChem BioAssay AID1347076 (National Center for Advancing Translational Sciences (NCATS), 2019).
# In all, about 400,000 compounds went through this assay and about 13,000 (3.2%) were called active. Inconclusive results, whose numbers are uncertain, are shown with a selection of clear calls. The call rests on the fitted dose curve; in most records, active means well fitted cell-killing curve with a large enough effect; inconclusive means small, poorly fitted or top-dose-only effect, or effect the other way; inactive means flat fitted curve, though single readings scatter. Potencies of inconclusive entries are doubtful fits and often do not repeat.
# Experiment: qHTS assay for MDR1-selective chemotherapeutics: Primary screen using the drug-selected MDR subline cells KB-V1; further: nearly all actives have a fitted effect of over 60% in size
# Settings: KB-V1 MDR cells viability, CellTiter-Glo, 72 h; series mostly up to 46.1 µM
# Summary of the method: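 Luminescent ATP read-out (CellTiter-Glo, 10 min) measures survival of drug-selected KB-V1 MDR cells after 72 h, 37 degrees C compound exposure. Medium: phenol-red-free DMEM, 10% FBS. Values from fitted concentration-response curves.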
# Potency means the concentration at half of the fitted maximal effect.
row,SMILES,Potency
1,CCOC(=O)c1nnn(-c2nonc2N)c1CSc1ccc(C)cc1,"inconclusive: 25.9 µM [cytotoxic, single point]"
2,COc1ccc2c(c1)cc1c(=O)n(CC(=O)NCCCOC(C)C)nc(C)n12,"inconclusive: 29.1 µM [cytotoxic, single point]"
3,COc1cc2c(C(=O)N3CCN(c4cccc(C(F)(F)F)c4)CC3)cn(CC(C)C)c(=O)c2cc1OC,"inconclusive: 25.9 µM [cytotoxic, partial curve, poor fit]"
4,COc1ccc2[nH]c3c(c2c1)CCN1C(=O)N([C@@H](C)C(=O)NCc2ccc(F)cc2)C(=O)[C@]31C,inactive
5,CN1CCN(C(=S)c2ccc(OCC(=O)Nc3cccc(C(F)(F)F)c3)cc2)CC1,"inconclusive: 16.4 µM [cytotoxic, partial curve]"
6,CC(C)CCOc1ccc(C2(C)NC(=O)NC2=O)cc1 (stereo unspecified),"inconclusive: 0.92 µM [rising, full curve, poor fit]"
7,COC(=O)[C@]1(C)N[C@H](c2ccc(-c3ccccc3)cc2)[C@@H]2C(=O)N(C)C(=O)[C@@H]21,inactive
8,O=c1cc(C(F)(F)F)nc(SC/C=C/c2ccccc2)[nH]1,"inconclusive: 32.6 µM [rising, single point]"
9,O=C(N/N=C/c1coc2ccccc2c1=O)c1cn(-c2ccccc2)nc1-c1ccc(F)cc1,inactive
10,Cc1nc(SCC(=O)Nc2ccc(CN3CCCC3)cc2)c2c(C)c(C)sc2n1,inactive
11,CCOCCCNc1nc2ccccc2n2c(CC)nnc12,inactive
12,C1CC2CN(c3nc4nonc4nc3N3CCSCC3)CCN2C1 (stereo unspecified),"inconclusive: 32.6 µM [cytotoxic, partial curve, poor fit]"
13,O=C(NC1CCCC1)C1C(c2ccccc2)=Nc2ccccc2N1C(=O)c1cc(Cl)cc(Cl)c1 (stereo unspecified),"inconclusive: 8.2 µM [cytotoxic, partial curve]"
14,COc1ccc(-c2noc(N3CCC(C(=O)N4CCN(c5ccccc5F)CC4)CC3)n2)cc1,inactive
15,CN(CCCNC(=O)c1ccc(N2CCCC2=O)cc1)c1ccccc1,"inconclusive: 20.6 µM [cytotoxic, single point]"
16,O=C(Nc1ccc2c(c1)OCO2)c1cc(-c2ccncc2)nc2ccccc12,"inconclusive: 9.2 µM [cytotoxic, partial curve]"
17,CCN1C(=O)c2cccc3c(S(=O)(=O)Nc4ccccc4)ccc1c23,active: 11.6 µM
18,C=CCNc1nnc(SCC(=O)N2CCC(C(N)=O)CC2)s1,inactive
19,COc1ccc2oc(-c3ccc(C)c(NC(=O)c4ccc(-c5ccccc5[N+](=O)[O-])o4)c3)nc2c1,"inconclusive: 32.6 µM [cytotoxic, single point]"
20,Cc1cc(-c2ccccc2)nc(-c2ccccc2)c1C,inactive
21,O=c1c(N2CCOCC2)nsn1Cc1ccccc1,"inconclusive: 9.2 µM [rising, partial curve, poor fit]"
22,Cc1nn(CC(O)COc2ccc3c(c2)CCC3)c(C)c1C (stereo unspecified),inactive
23,O=S(=O)(CCN1CCN(c2ccccc2O)CC1)c1ccc(Cl)cc1,"inconclusive: 14.6 µM [cytotoxic, single point]"

row,SMILES,Potency
1,c1cn(CC2(Cn3ccnc3)COC2)cn1,"inconclusive: 23.1 µM [rising, partial curve]"
2,CCCn1nc(C(=O)NCC2COc3ccccc3O2)c2ccccc2c1=O (stereo unspecified),active: 7.31 µM
3,O=C1N/C(=N/Nc2ccccc2)S/C1=C\c1ccccc1,"inconclusive: 25.9 µM [cytotoxic, single point]"
4,Cc1cc(-n2c(C)cc(C(=O)CCl)c2C)no1,"inconclusive: 2.59 µM [cytotoxic, full curve]"
5,CN(c1ccc(OCC(=O)Nc2nc3ccccc3s2)cc1)S(=O)(=O)c1ccccc1,"inconclusive: 18.4 µM [cytotoxic, single point]"
6,Cc1ccc(-c2nnn(CC(=O)N(CC(=O)NC3CCCC3)c3ccc(F)cc3)n2)o1,inactive
7,CC(CCC(C)[n+]1cccc(C#N)c1)[n+]1cccc(C#N)c1 (stereo unspecified),"inconclusive: 29.1 µM [rising, single point]"
8,O=C(Nc1cc(Cl)cc(Cl)c1)C(c1ccccc1)N1CCCCC1 (stereo unspecified),"inconclusive: 20.6 µM [cytotoxic, single point]"
9,O=C(NC1CCCC1)C(c1ccc(F)cc1)N(Cc1ccccc1)C(=O)c1csnn1 (stereo unspecified),"inconclusive: 8.2 µM [cytotoxic, partial curve, poor fit]"
10,COc1ccc(C(CCc2ccc(C)o2)NC(=O)Nc2ccc(OC)cc2OC)cc1 (stereo unspecified),active: 7.31 µM
11,C/C=C(/C)C(=O)Nc1cccc(C2=NOC3(C2)C[C@H](C(N)=O)N(C(=O)COc2ccc(Cl)cc2)C3)c1 (stereo partly specified),"inconclusive: 16.4 µM [rising, partial curve]"
12,CCOC(=O)C1CCN(C(=O)CCC2CCCC2)CC1,inactive
13,Clc1ccc(CN2CCN(/N=C/c3cccnc3)CC2)cc1,"inconclusive: 29.1 µM [cytotoxic, single point]"
14,Cc1ccc2[nH]c(CSc3nnc(NC(=O)c4ccccc4F)s3)cc(=O)c2c1,inactive
15,Cc1ccc(OCc2cc(C(=O)N3CCC(C(O)C(C)C)CC3)no2)cc1C (stereo unspecified),"inconclusive: 20.6 µM [cytotoxic, partial curve, poor fit]"
16,O=P(O)(CCc1ccncc1)CN1CCCCC1,inactive
17,Cc1cc(C)cc(NC(=O)CSc2nc3nc(C)cc(C)n3n2)c1,active: 18.4 µM
18,CCCCN(C=O)c1c(CC)nc2c(OCc3ccc(C(F)(F)F)cc3)cccn12,inactive
19,COC(=O)[C@@]1(Cc2ccc(F)cc2)[C@H]2c3cc(C(=O)N(C)C)n(CCN4CCOCC4)c3C[C@H]2CN1C(=O)c1ccccc1,"inconclusive: 10.3 µM [cytotoxic, partial curve]"
20,CCOc1ccc(C2=CC(=O)C[C@H](c3ccc(OC)cc3)C2)cc1,inactive
21,Cc1nc(N2CCN(C)CC2)c2c(C)c(C(=O)Nc3ccc(C)c(F)c3)sc2n1,inactive
22,COc1cccc(-c2oc3c(c2-c2ccc(OC)nc2)C(O)CCC3)c1 (stereo unspecified),inactive
23,CN(C)/C=C1/N=C(c2ccccc2)OC1=O,inactive

# Eleven entries from above, arranged by molecular weight, low to high:
row,SMILES,Potency
1,c1cn(CC2(Cn3ccnc3)COC2)cn1,"inconclusive: 23.1 µM [rising, partial curve]"
4,Cc1cc(-n2c(C)cc(C(=O)CCl)c2C)no1,"inconclusive: 2.59 µM [cytotoxic, full curve]"
7,CC(CCC(C)[n+]1cccc(C#N)c1)[n+]1cccc(C#N)c1 (stereo unspecified),"inconclusive: 29.1 µM [rising, single point]"
13,Clc1ccc(CN2CCN(/N=C/c3cccnc3)CC2)cc1,"inconclusive: 29.1 µM [cytotoxic, single point]"
17,Cc1cc(C)cc(NC(=O)CSc2nc3nc(C)cc(C)n3n2)c1,active: 18.4 µM
8,O=C(Nc1cc(Cl)cc(Cl)c1)C(c1ccccc1)N1CCCCC1 (stereo unspecified),"inconclusive: 20.6 µM [cytotoxic, single point]"
2,CCCn1nc(C(=O)NCC2COc3ccccc3O2)c2ccccc2c1=O (stereo unspecified),active: 7.31 µM
21,Cc1nc(N2CCN(C)CC2)c2c(C)c(C(=O)Nc3ccc(C)c(F)c3)sc2n1,inactive
10,COc1ccc(C(CCc2ccc(C)o2)NC(=O)Nc2ccc(OC)cc2OC)cc1 (stereo unspecified),active: 7.31 µM
9,O=C(NC1CCCC1)C(c1ccc(F)cc1)N(Cc1ccccc1)C(=O)c1csnn1 (stereo unspecified),"inconclusive: 8.2 µM [cytotoxic, partial curve, poor fit]"
19,COC(=O)[C@@]1(Cc2ccc(F)cc2)[C@H]2c3cc(C(=O)N(C)C)n(CCN4CCOCC4)c3C[C@H]2CN1C(=O)c1ccccc1,"inconclusive: 10.3 µM [cytotoxic, partial curve]"
